Drawing on PMC11852716, “c-di-GMP phosphodiesterase ProE interacts with quorum sensing protein PqsE to promote pyocyanin production in Pseudomonas aeruginosa” (mSphere, 2025), this text covers binding for one molecule.

Chains of the proteins cited; added tags and fusions are not shown. Lines headed by an entry give the natural chain unless they say otherwise; changes in a name come on top.
UniProt Q9HTQ9: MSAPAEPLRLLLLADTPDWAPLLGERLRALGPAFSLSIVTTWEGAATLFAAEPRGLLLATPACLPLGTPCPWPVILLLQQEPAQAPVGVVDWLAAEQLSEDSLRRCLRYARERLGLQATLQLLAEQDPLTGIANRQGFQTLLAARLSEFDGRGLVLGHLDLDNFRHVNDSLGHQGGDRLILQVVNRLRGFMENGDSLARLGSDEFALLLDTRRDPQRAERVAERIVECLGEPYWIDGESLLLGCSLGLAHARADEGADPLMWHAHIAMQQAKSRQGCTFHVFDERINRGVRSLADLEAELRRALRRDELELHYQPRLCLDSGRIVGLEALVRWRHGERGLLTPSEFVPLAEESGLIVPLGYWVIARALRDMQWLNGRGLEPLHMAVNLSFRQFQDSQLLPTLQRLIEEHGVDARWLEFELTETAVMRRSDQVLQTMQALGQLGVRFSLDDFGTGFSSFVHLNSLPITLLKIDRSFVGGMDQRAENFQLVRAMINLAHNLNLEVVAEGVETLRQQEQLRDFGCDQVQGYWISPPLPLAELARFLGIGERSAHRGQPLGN

The target in the test is ProE, bacterial two-hybrid fusion (Pseudomonas aeruginosa) (UniProt Q9HTQ9). Description: two-hybrid; BacterioMatch II bacterial two-hybrid in E. coli XL1-Blue MRF' Kan; growth on M9+ His-deficient plate with 2.5 mM 3-AT, 37°C overnight.

No constants are given. Whether binding was seen depends on the method and setting. A result given as binding can be weak or reduced; the word gives no strength. Tags and fused reporters may be left off the sequences shown.

B1: LasI, bacterial two-hybrid fusion (protein, UniProt P33883 1-201)
chain: MIVQIGRREEFDKKLLGEMHKLRAQVFKERKGWDVSVIDEMEIDGYDALSPYYMLIQEDTPEAQVFGCWRILDTTGPYMLKNTFPELLHGKEAPCSPHIWELSRFAINSGQKGSLGFSDCTLEAMRALARYSLQNDIQTLVTVTTVGVEKMMIRAGLDVSRFGPHLKIGIERAVALRIELNAKTQIALYGGVLVEQRLAVS
As for B1, the binding result was “binds weakly”.
